# Where “and” joins values, the source holds several entries; their conditions need not be identical. Identical values can stand only once.
# Tests used:
# [1] = system: Nicotiana benthamiana leaves; experiment: Transient co-expression of biosynthetic genes in N. benthamiana leaves, metabolite ion abundance by LC-MS
# PtCAL-1a/PtCAL-2a = experiment: In vitro reactions with apoplastic PtCAL-1a/PtCAL-2a (formation of 9, decarboxylation of 3, Zn chelator); format: biochemical; details: for ion abundance of 9 (m/z 164.1434) over time: GFP, +3, +8; for ratio of 4 ion abundance (m/z 142.1226) to that of 3 (m/z 186.1125): GFP +3
# Description: The three CAL proteins identified in this study have predicted N-terminal signal peptides, which were identified using the TargetP-2.0 server (https://services.healthtech.dtu.dk/service.php?TargetP-2.0)[58]. […] To assess this possibility, CAL genes with or without C-terminal 6xHis tags were transiently expressed in N. benthamiana, as described above. Each CAL gene was expressed individually; also, PtCAL-1a and PtCAL-2a were transiently co-expressed in the same leaf because we had found them to cofunction in Lycopodium alkaloid biosynthesis. At 4 days after Agrobacterium infiltration, apoplast protein extracts were isolated using the infiltration–centrifugation method, much as previously described. Two leaves per reaction were excised from the plant and submerged in ice-cold apoplast extraction buffer (100 mM MES, 300 mM NaCl, pH 5.5) in an open-capped 50 ml Falcon tube and these tubes were placed in a plastic vacuum chamber attached to a Welch Model 2025 vacuum pump. The chamber was brought down to full vacuum and after 2 min at this pressure, the vacuum was slowly released to allow for buffer to infiltrate the leaf apoplastic space. Buffer-infiltrated leaves were carefully removed from the Falcon tubes, blotted dry with paper towels and were then rolled into Parafilm and placed in a plungerless 5 ml plastic syringe. The syringe was placed in a 15 ml Falcon tube and this was then centrifuged at 1,000g and 4 °C for 10 min to collect apoplast extract. The resulting extract was centrifuged at 10,000g and 4 °C for 15 min to pellet any larger cellular debris and the supernatant was concentrated using an Amicon Ultra-4 Centrifugal Filter Unit (10 kDA MWCO, MilliporeSigma UFC501024). Protein concentrations were measured using the BIO-RAD Protein Assay or Bradford assay (Abcam 119216) and adjusted with apoplast extraction buffer to a final concentration between 0.5 and 1.5 mg ml^−1. Aliquots of the extracts were snap frozen in liquid nitrogen and stored at −80 °C.
# Reactions with CAL-enriched apoplast were routinely performed in low-pH potassium phosphate buffer (50 mM potassium phosphate, 100 mM NaCl, pH 5.9) at a volume of 20 µl. For PtCAL-1a/PtCAL-2a, these reactions contained approximately 1.4 µg of apoplast protein for each CAL (final concentration of 0.07 µg µl^−1). Control reactions used apoplast from leaves expressing only one CAL or with apoplast generated from GFP-expression N. benthamiana leaves. The requisite substrates for this reaction were generated through the activities of in vitro PtPIKS-1 and PtCYP782C1 enzyme reactions. […]. To generate 3 and 4 as potential substrates, 1 µg of previously purified PtPIKS-1 enzyme[23] and 150 µM 1 and 300 µM malonyl-CoA were added directly to the CAL reaction mixtures. After thorough mixing, reactions were incubated at room temperature. An alternative route for producing 3 and 4 independently of thioester intermediates was achieved by mixing stocks of 1 (10 mM in water) and 2 (10 mM in water; always prepared fresh to minimize compound decomposition) in equal proportion, followed by incubation at room temp for 1–2 h, as these two substrates can non-enzymatically condense to yield 3 (which can spontaneously decarboxylate to produce 4). A 2 µl aliquot of this mixture was then added as a component of the PtCAL-1a/PtCAL-2a enzyme reaction (20 µl total reaction volume) in addition to the PtCYP782C1 microsomal reaction mixture. After predesignated incubation times, reactions were quenched by diluting tenfold into ACN with 0.1% formic acid.
# To evaluate the potential decarboxylation of β-keto acid substrates by PtCAL-1/PtCAL-2 and PtCAL-3, only 3 or 2, respectively, were added as substrate. PtCAL-1/PtCAL-2 reactions were quenched by diluting aliquots tenfold into ACN with 0.1% formic acid and were subsequently analysed through HILIC LC–MS. PtCAL-3 reactions were quenched by mixing aliquots with an equal volume of water with 0.2% formic acid and were then analysed through C18 LC–MS. […]
compound,measurement,setting,value
CC1CC2=NCCCC2=C(CC2CCCCN2)C1 (centres unmarked) [compound 9],ion abundance of 9 (m/z 164.1434),[1]; pathway to 8,0
same,ion abundance of 9 (m/z 164.1434),[1]; pathway to 8 +CAL-1a/CAL-2a,8024968 and 9400279 and 8191081
same,ion abundance of 9 (m/z 164.1434) over time,PtCAL-1a/PtCAL-2a; 0.17 hrs,0
same,ion abundance of 9 (m/z 164.1434) over time,PtCAL-1a/PtCAL-2a; 0.50 hrs,0
same,ion abundance of 9 (m/z 164.1434) over time,PtCAL-1a/PtCAL-2a; 1.00 hrs,0
same,ion abundance of 9 (m/z 164.1434) over time,PtCAL-1a/PtCAL-2a; 2.00 hrs,0
same,ion abundance of 9 (m/z 164.1434) over time,PtCAL-1a/PtCAL-2a; 4.00 hrs,0
same,ion abundance of 9 (m/z 164.1434) over time,PtCAL-1a/PtCAL-2a; 8.00 hrs,0
same,ion abundance of 9 (m/z 164.1434) over time,PtCAL-1a/PtCAL-2a; 20.00 hrs,0
same,ion abundance of 9 (m/z 164.1434) over time,PtCAL-1a/PtCAL-2a; 24.00 hrs,0
same,ion abundance of 9 (m/z 164.1434) over time,"PtCAL-1a/PtCAL-2a; +PtCAL-3, 0.17 hrs",0
same,ion abundance of 9 (m/z 164.1434) over time,"PtCAL-1a/PtCAL-2a; +PtCAL-3, 0.50 hrs",0
same,ion abundance of 9 (m/z 164.1434) over time,"PtCAL-1a/PtCAL-2a; +PtCAL-3, 1.00 hrs",0
same,ion abundance of 9 (m/z 164.1434) over time,"PtCAL-1a/PtCAL-2a; +PtCAL-3, 2.00 hrs",0
same,ion abundance of 9 (m/z 164.1434) over time,"PtCAL-1a/PtCAL-2a; +PtCAL-3, 4.00 hrs",0
same,ion abundance of 9 (m/z 164.1434) over time,"PtCAL-1a/PtCAL-2a; +PtCAL-3, 8.00 hrs",0
same,ion abundance of 9 (m/z 164.1434) over time,"PtCAL-1a/PtCAL-2a; +PtCAL-3, 20.00 hrs",0
same,ion abundance of 9 (m/z 164.1434) over time,"PtCAL-1a/PtCAL-2a; +PtCAL-3, 24.00 hrs",0
CC(=O)C[C@H]1CCCCN1C(C)=O [NAc-(R)-4],ion abundance of NAc-(R)-4 (m/z 184.1332),[1]; pathway to 8,1360000 and 1300000 and 1260000
same,ion abundance of NAc-(R)-4 (m/z 184.1332),[1]; pathway to 8 +CAL-1a/CAL-2a,1400000 and 1330000 and 995000
CC(=O)C[C@@H]1CCCCN1C(C)=O [NAc-(S)-4],ion abundance of NAc-(S)-4 (m/z 184.1332),[1]; pathway to 8,1410000 and 1300000 and 1220000
same,ion abundance of NAc-(S)-4 (m/z 184.1332),[1]; pathway to 8 +CAL-1a/CAL-2a,1180000 and 902000 and 745000
"O=C(O)CC(=O)CC1CCCCN1 (centres unmarked) [compound 3, 4-(2-piperidyl)acetoacetic acid]",ion abundance of 3 (m/z 186.1125),[1]; pathway to 8,9410896 and 8730072 and 10333652
same,ratio of 4 ion abundance (m/z 142.1226) to that of 3 (m/z 186.1125),PtCAL-1a/PtCAL-2a; 0.25 hrs (ED 4g),43.1035 and 48.8982 and 60.4489
same,ratio of 4 ion abundance (m/z 142.1226) to that of 3 (m/z 186.1125),PtCAL-1a/PtCAL-2a; 0.5 hrs (ED 4g),50.5262 and 67.5812 and 54.1147
same,ratio of 4 ion abundance (m/z 142.1226) to that of 3 (m/z 186.1125),PtCAL-1a/PtCAL-2a; 1 hrs (ED 4g),56.742 and 49.4225 and 48.9637
same,ratio of 4 ion abundance (m/z 142.1226) to that of 3 (m/z 186.1125),PtCAL-1a/PtCAL-2a; 2 hrs (ED 4g),51.4101 and 43.0157 and 54.2008
C/C=C/C1=NCCCC1 [compound 8],ion abundance of 8 (m/z 124.1121),[1]; pathway to 8,9638249 and 12521473 and 7967225
same,ion abundance of 8 (m/z 124.1121),[1]; pathway to 8 +CAL-1a/CAL-2a,1222800 and 1037676 and 1210696

# Source: article PMC10700139 (Nature, 2023)
